Measurements as given in publication PMC11324514.

Sequences of proteins named here, by UniProt entry; tags and fusion partners are left off.
UniProt Q07157: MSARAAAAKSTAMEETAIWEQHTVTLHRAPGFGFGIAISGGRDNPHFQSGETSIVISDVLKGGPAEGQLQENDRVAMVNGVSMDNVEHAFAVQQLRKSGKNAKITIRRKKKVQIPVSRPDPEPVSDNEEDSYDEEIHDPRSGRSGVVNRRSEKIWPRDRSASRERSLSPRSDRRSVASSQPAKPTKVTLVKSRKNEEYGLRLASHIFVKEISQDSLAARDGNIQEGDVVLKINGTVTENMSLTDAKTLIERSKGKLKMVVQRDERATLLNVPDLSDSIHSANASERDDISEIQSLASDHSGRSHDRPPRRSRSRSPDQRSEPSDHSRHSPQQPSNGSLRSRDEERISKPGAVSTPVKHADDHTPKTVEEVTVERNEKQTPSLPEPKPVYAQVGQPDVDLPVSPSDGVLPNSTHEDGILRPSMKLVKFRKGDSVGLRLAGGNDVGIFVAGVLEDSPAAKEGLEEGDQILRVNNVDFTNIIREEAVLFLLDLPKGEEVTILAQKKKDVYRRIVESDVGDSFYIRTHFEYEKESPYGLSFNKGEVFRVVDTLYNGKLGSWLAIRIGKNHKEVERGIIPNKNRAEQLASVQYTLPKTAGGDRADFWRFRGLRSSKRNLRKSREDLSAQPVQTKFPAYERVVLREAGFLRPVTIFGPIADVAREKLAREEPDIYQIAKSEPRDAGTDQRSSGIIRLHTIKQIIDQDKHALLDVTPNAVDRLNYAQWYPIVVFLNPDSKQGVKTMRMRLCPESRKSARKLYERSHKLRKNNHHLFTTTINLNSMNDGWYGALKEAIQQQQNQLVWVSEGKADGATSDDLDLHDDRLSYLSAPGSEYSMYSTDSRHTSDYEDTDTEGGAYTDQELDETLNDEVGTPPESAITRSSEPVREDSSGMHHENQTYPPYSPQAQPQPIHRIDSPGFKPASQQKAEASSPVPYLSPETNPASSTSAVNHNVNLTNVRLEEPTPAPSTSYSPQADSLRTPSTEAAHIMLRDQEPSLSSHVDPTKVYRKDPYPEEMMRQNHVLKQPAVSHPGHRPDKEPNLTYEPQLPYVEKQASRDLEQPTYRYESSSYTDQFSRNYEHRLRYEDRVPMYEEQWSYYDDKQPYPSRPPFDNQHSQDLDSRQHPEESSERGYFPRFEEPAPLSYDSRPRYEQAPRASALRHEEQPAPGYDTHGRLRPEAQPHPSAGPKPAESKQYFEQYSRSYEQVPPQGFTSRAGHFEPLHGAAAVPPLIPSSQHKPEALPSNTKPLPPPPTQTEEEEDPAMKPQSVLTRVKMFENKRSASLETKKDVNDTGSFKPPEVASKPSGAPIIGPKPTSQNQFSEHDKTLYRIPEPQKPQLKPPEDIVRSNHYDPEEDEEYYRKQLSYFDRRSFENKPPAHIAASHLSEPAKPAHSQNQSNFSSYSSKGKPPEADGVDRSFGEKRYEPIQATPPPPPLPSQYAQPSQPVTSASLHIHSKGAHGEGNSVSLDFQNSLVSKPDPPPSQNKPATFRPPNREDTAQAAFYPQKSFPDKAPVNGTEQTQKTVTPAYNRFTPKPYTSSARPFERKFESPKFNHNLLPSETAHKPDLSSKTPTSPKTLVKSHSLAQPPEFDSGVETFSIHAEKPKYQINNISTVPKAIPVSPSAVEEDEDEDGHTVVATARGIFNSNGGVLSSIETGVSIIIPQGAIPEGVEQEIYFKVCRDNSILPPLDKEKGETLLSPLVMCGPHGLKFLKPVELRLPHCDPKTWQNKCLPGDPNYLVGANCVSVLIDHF
UniProt E2QYC9: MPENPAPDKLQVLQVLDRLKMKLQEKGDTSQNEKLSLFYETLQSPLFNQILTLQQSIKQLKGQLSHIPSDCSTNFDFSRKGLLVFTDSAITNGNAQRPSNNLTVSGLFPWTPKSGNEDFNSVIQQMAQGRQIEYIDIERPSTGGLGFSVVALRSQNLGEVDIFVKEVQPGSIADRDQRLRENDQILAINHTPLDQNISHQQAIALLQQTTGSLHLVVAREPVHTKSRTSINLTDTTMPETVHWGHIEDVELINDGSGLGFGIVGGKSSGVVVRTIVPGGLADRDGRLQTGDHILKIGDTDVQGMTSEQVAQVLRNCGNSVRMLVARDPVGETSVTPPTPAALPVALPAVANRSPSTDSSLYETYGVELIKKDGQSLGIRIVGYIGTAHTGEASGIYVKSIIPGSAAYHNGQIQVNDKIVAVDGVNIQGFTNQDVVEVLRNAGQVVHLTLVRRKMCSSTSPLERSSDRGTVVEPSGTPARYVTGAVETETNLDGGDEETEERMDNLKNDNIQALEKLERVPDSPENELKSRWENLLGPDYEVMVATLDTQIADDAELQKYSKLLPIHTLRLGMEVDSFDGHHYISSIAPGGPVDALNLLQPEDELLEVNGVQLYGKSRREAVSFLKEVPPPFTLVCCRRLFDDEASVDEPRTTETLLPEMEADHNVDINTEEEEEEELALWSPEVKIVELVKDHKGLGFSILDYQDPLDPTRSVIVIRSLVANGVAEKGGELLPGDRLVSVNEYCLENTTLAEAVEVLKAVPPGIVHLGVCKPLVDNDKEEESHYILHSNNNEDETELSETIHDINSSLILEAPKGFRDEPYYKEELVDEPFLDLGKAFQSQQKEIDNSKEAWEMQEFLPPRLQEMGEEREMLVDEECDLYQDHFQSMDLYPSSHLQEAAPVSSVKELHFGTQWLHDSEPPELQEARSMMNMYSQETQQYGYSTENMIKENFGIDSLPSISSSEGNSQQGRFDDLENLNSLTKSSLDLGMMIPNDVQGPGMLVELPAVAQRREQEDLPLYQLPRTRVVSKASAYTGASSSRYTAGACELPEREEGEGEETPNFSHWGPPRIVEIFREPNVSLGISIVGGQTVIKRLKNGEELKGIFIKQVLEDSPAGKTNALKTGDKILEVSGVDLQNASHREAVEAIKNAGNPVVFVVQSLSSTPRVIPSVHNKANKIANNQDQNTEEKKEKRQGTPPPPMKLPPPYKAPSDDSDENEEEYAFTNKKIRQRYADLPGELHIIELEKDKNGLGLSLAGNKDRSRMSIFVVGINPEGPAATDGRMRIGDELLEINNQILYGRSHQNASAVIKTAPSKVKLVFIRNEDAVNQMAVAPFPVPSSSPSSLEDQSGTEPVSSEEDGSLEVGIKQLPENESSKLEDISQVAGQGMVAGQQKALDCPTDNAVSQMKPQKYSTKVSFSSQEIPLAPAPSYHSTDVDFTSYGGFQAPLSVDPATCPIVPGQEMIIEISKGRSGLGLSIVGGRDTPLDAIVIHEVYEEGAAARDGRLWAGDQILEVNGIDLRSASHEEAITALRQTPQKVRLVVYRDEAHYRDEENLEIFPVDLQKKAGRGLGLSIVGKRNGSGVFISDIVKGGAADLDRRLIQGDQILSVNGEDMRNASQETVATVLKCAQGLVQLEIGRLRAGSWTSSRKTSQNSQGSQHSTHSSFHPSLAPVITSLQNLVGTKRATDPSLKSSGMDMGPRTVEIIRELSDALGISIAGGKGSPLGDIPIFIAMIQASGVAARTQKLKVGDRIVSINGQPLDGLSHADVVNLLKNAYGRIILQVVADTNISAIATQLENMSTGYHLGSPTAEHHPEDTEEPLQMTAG

B1: occludin (protein, UniProt Q28269 1-521)
chain: MSSRPFESPPPYRPDEFKPNHYAPSNDVYGGDMHVRPMLSQPAYSFYPEDEILHFYKWTSPPGVIRILSMLVIVMCIAIFGCVASTLAWDRGYGTGLMGGSIGYPYGSGFGSYGTGYGYGFGYGYGYGGYTDPRAAKGFLLAMVAFCFIAALVIFVTSVIRSDISRTRRYYLTVIILSAFLGVMMFIATIVYIMGVNPTAQASGSLYSSQIYAMCNQFYASTATGLYMDQYLYHYCVVDPQEAIAIVLGFMVIVAFALIIFFAVKTRRKMDRYDKSNILWDKEHIYDEQPPNVEEWVKNVSAGTQDMPPPPSDYVERVDSPMAYSSNGKVNDKRLYPESSYKSTPVPEVVQELPATSPADDFRQPRYSSSGHLEPPSKRAPSKGRTGRPKRLEQDHYETDYTTGGESCDELEEDWIREYPPITSDQQRQLYKRNFDTGLQEYKSLQAELDEINKELSRLDKELDDYREESEEYMAAADEYNRLKQVKGSPDYKNKRNYCKQLKSKLSHIKKMVGDYDRQKT
B2: ZO-2 (protein, UniProt Q95168 1-1174)
chain: MEELIWEQYTVTLQKDSKRGFGIAVSGGRDNPHFENGETSIVISDVLPGGPADGLLQENDRVVMVNGTPMEDVLHSFAVQQLRKSGKIAAIVVKRPRKVQLAPPQGSLPVDEDDRAFEVMDEFDGRSARSGYSERSRRSSHGGRSRSWEDSPERGRPHERAWSQERERSRGRSLERGLDHDDDYRRPRERSRGRSLERGLDHDDDYGRPGERSHGMSTDRGYDRGYDRGYDRGYDRTYSPEAEYGRRTQPDARHAGSRSRSREHLRSRSPSPELRGRPDHAGQPDSDRPIGVLLMKSKANEEYGLRLGSQIFIKQMTRTALATKDGNLHEGDIILKINGTVTENMSLTDARKLIEKSRGKLQLVVLRDSKQTLINIPSLNDSDSEIEDISEIESNRSFSPEERRQQYSDYDYHSSNEKLKERPNSREDMQNRWSRMGATPTPFKSMGDIASVVGTENSKEPRYQEEPPAPQPKAAPRTFLRPSPEDEAIYGPNTKMVRFKKGDSVGLRLAGGNDVGIFVAGIQEGTSAEQEGLQEGDQILKVNTQDFRGLVREDAVLYLLEIPKGEMVTILAQSRADVYRDILACGRGDSFFIRSHFECEKETPQSLAFSRGEVFRVVDTLYDGKLGHWLAVRIGNELEKGLIPNKSRAEQMASVQNAQRDNAGDRADFWRMRGQRSGMKKNLRKSREDLTAAVSVSTKFPAYERVLLREAGFKRPVVLFGPIADIALEKLANELPDLFQTAKTEPKDAGSEKSSGVVRLNTVRQIIEQDKHALLDVTPKAVDLLNYTQWFPIVIFFNPDSRQGVKTMRQRLNPTSNKSSRKLYDQANKLKKTCAHLFTATINLNSANDSWFGSLKDTIQHQQGEAVWVSEGKMEGMDDDPEDRMSYLTAMGADYLSCDSRLISDFEDTDGEGGAYTDNELDEPAEEPLVSSITRSSEPVQHEESIRKPSPEPRAQMRRAASRDQLRDSSPPPAFKPEPPKAKTQNREESFDISRSHDYKSNPSAVAGNEVSGASTRSCPPPIAAKPSFGRSILKPSTPVPSPESEEVGEGSEEQEGAPKSVLGKVKIFEKMDHKARLQRMQELQEAQNARIEIAQKHPDIYAVPIKTHKPDPGLSQHTSSRPPEPQKGPSRLYQDPRGSYGSDAEEEEYRQQLSEHSKRGYYSQPSRYRDTEL
B3: claudin-4 (protein, UniProt A0A8C0N7E5 1-210)
chain: MASMGLQVMGIALAVLGWLGAILSCALPMWRVTAFIGSNIVTSQTIWEGLWMNCVVQSTGQMQCKVYDSLLALPQDLQAARALMVVSIILAALGVLLSVVGGKCTNCVEDESAKAKTMIVAGVVFLLAGLLVMVPASWTANNIIRDFYNPLVVSGQKREMGASLYVGWAASGLLLLGGALLCCNCPPRADKPYSAKYSAAARSAPASNYV
B4: CGN (protein, UniProt A7YH32 1-1196)
chain: MEQASTMAEPRGPVDHGVQIRFITEPVGNAEMDTLRRGGRRPAKDARANTYGVAVRVQGIAGQPFVVLNSGEQGSDSFGVQIKGTNNRGPPGALSSDSELPESTYSHAKEFPARSQGSMSDEELGAHWNGRLLRSQSQASLKGPAPVSPSTRSTSLLQLAPEVASPGSTIDTAPLSSVDSLINKFDSRQGGQARGRTGRRMRTLPPEQRKRSQSLDNRLPRDTLDEREHQFPTHWTPSTKRDSHMGNSKQSSQNQGPLGGFSCSRQTQDWVLQSFEEPRGRAWDPGMLQFKSTPDLLRDQQETAPPGSVDHVKATIYSILREGSSETETSVRRKVNLVLEQMQPLVMTSGSAKGLTGQSELSQKVEELQQKLDEEVKKRPKLESSRLGLERQLQEKAEECSQLQELLERRKGEAQQSTKELQNMKLLVDQSERVRCGLEAQVKELQDKLKQAQEPEPAKEALMKDLLEARELLEEVLEGKQRMEEHLRLRERELTALKGALKEEVASRDQEVEHVRQQCQRDAEQLRRSIQDATQDHAALEVERQKMSTLVRELQKELEETSEETGHWQSMFQKNKDELRATKQELLQLRMEKEEIEEELGEKIEVLQRELGQARAGAADTRQMEELKKELCQTQKELKELKEEQQNQEVAGRHRERELEKQLKVEADRGQGLEQQNLQLQKTLQQLRQDCEEASKAQVAAEAEVAVLGQRRAAVEVTLRETQEENDEFRRRILGLEQQLKEARGLAEGGEVAEARLRDKVQRLEAEKQRLEEALNAAQEEEGSLAAAKRALEARLEEAQRGLARLGQEQLALNRALEEEGKQREALRRSKAELEEQKRLLDKTVCQLNKELEQIGNDSKQALQQLQAQLEDYKEKARREVADAQRQAKEWATEAEKNSGGLSRLQDETQRLRQALQASQADRDTARLDKELLAQRLQGLEQEAENKKRSQDDRARQLKGLEEKVSRLEAELDEERSTVELLTERVTRGRDQVDQLRSELMQERSARQDLECDKISLERQNKDLKSRLASSEGFQKPSASLSQLESQNQELQERLQAEEREKTVLQSTNRKLERRVKELSIQIDDERQHVNDQKDQLSLRVKALKRQVDEAEEEIERLDGLRKKAQRELEEQHEVNEQLQARIKTLEKDSWRKASRSAAESAQREGLSSDEEFDSVYDPSSIASLLTESNLQTSSC

biological target: Dendra2–ZO-1–APEX2 (UniProt Q07157); test: proximity labelling; Dendra2–ZO-1–APEX2 in MDCK-II monolayers; calcium switch, labelling at 0, 0.5, 1, 3 and 18 h; 1 mM biotin phenol 30 min, 1 mM H2O2 1 min; streptavidin pull-down, TMT mass spectrometry; enrichment against 0 h; proximity < 20 nm

binding, binds:
PATJ (endogenous, MDCK-II) (from UniProt E2QYC9 1-1828)
B1
B2
B3
B4

No constants are given. Whether binding was seen depends on the method and setting. In cells and extracts the contact can be indirect. Here binding means that the protein was enriched with, or labelled near, the bait; the list need not be complete.
